Results published in patent US20080166798A1.
Results are given in words; binding and its absence hold for the method and conditions named. Some binding calls cover weakened binding; strength is not graded here. Each block holds one substance with its values, some of them ahead of it.

By UniProt entry, the sequences of proteins in these tests, tags left out. Where a name states a change or a piece, a line headed by the entry shows the natural chain unless it says otherwise. Residues count along the entry.
UniProt P02458, residues 26-181: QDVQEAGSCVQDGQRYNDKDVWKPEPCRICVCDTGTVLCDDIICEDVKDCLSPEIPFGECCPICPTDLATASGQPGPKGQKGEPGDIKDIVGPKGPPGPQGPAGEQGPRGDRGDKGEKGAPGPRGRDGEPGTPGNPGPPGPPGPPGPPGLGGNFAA
UniProt P35248: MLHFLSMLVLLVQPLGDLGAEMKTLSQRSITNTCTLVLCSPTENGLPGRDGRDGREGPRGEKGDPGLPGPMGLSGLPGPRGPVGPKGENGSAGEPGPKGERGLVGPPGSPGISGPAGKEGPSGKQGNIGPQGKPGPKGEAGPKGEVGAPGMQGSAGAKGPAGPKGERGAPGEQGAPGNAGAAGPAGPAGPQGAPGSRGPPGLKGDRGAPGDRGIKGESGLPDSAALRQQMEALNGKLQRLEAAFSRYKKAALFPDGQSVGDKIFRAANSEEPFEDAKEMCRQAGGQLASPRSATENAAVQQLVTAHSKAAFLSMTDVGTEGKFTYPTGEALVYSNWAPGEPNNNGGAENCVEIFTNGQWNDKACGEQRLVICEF

Experiments:
[1] = biological target: T1, mIIA-225 (human; rat) (UniProt P02458+P35248); test: self-association; BS3 cross-linking, anti-IIA Western blot
[2] = biological target: T1, mIIA-225 (human; rat); test: self-association; BS3 cross-linking, anti-IIA immunoblot
[3] = biological target: IIA NH2-propeptide purified after MMP-9 cleavage of the IIA/SP-D fusion protein (human) (UniProt P02458); test: self-association; BS3 cross-linking, SDS-PAGE
[4] = biological target: T2, mIIA-218 (human; rat) (UniProt P02458+P35248); test: self-association; BS3 cross-linking, anti-IIA Western blot
[5] = biological target: T2, mIIA-218 (human; rat); test: self-association; BS3 cross-linking, anti-IIA immunoblot
[6] = biological target: T3, mIIA-237 (human; rat) (UniProt P02458+P35248); test: self-association; BS3 cross-linking, anti-IIA Western blot
[7] = biological target: T3, mIIA-237 (human; rat); test: self-association; BS3 cross-linking, anti-IIA immunoblot

binding [1]: binds
binding [2]: binds
Substance: mIIA-225 (from UniProt P02458 26-203; P35248 222-243)

binding [3]: binds
Substance: IIA NH2-propeptide purified after MMP-9 cleavage of the IIA/SP-D fusion protein (from UniProt P02458 26-181)

binding [4]: binds
binding [5]: binds
Substance: mIIA-218 (from UniProt P02458 26-203; P35248 222-236)

binding [6]: binds
binding [7]: binds
Substance: mIIA-237 (from UniProt P02458 26-203; P35248 222-255)
